Consider 28 molecules from the supplement of paper PMC12823440, “Inhibitors supercharge kinase turnover through native proteolytic circuits” (Nature, 2025).

The chains behind the UniProt entries cited, without tags or fusion partners. Where a name states a change or a piece, a line headed by the entry shows the natural chain unless it says otherwise.
UniProt Q9Y616: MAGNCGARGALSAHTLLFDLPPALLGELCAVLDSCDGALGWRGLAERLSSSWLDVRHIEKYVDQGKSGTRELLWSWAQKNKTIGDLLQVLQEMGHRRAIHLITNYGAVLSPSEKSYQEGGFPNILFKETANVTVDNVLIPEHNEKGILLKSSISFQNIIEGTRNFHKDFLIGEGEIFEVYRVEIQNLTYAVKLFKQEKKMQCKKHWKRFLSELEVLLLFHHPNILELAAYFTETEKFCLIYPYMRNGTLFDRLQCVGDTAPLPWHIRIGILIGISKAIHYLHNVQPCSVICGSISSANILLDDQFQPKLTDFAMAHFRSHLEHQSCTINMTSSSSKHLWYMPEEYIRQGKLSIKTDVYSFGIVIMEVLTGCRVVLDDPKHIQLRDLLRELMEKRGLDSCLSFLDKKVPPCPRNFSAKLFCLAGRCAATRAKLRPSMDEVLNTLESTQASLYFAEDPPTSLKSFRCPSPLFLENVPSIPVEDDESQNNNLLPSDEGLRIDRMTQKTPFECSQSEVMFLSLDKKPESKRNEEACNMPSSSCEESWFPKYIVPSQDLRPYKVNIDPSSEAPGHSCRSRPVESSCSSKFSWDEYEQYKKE

Where a name gives a salt, the structure may show the parent alone. The list shows a part of the results. Hit calls seldom repeat between salt and free forms of one compound.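 In K562 cells expressing nanoluciferase-fused kinases, luminescence was recorded at 4 h intervals between 2 and 18 h, normalized as percent of control with DMSO at 100% and a positive control at 0%. A significant (2 sigma) signal drop marks a time point as decreased. The authors' rule for a hit is not shown and takes in more than the number of time points.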

This test addresses IRAK3 (UniProt Q9Y616). Description: number of time points (of 5) at which kinase-Nluc abundance scored as decreased, DMSO-normalised (count); higher = more persistent destabilization. Particulars: K562; 2-18 h.
In the case of `C=C(CCC=C(C)C)[C@H]1CC[C@]2(C)[C@@H]1[C@H](O)C[C@@H]1[C@@]3(C)CC[C@H](O[C@@H]4O[C@H](CO)[C@@H](O)[C@H](O)[C@H]4O[C@@H]4O[C@H](CO)[C@@H](O)[C@H](O)[C@H]4O)C(C)(C)[C@@H]3CC[C@]12C` [Ginsenoside Rk1] (10 µM), the “number of time points” value came out at 0. `CCn1c(=O)c(-c2ccc(-c3cncs3)cc2Cl)cc2cnc(Nc3ccc(N4CCN(C)CC4)cc3)nc21` (2.5 µM): the “number of time points” value came out at 0.

Turning to `Nc1nccc(Oc2ccc(NC(=O)c3cn(COP(=O)(O)O)cc(-c4ccc(F)cc4)c3=O)cc2F)c1Cl` (10 µM), the “number of time points” value was determined as 0. The figure for `Cc1cc(-c2cc(OC(=O)c3ccccc3)ccc2Cl)cc2nnc(Nc3ccc(OCCN4CCCC4)cc3)nc12` (0.5 µM) is 0; for `OC[C@H]1O[C@@H](Oc2cc3c(O)cc(O)cc3[o+]c2-c2cc(O)c(O)c(O)c2)[C@H](O)[C@@H](O)[C@@H]1O` [Delphinidin 3-glucoside (chloride)] (10 µM) it is 0. Under `O=C(/C=C/c1ccc(O)c(O)c1)c1ccc(O[C@@H]2O[C@H](CO)[C@@H](O)[C@H](O)[C@H]2O)c(O)c1O` [Marein] (10 µM) stands 0; under `O=C1Nc2nc(-c3c(O)cccc3OCC3CC3)cc([C@@H]3CCCNC3)c2CO1` [Bay 65-1942 (hydrochloride)] (10 µM), 0; under `CC(C)CN(CC(=O)N1CCN(CC(OCc2ccc3ccccc3c2)c2ccc(Cl)cc2Cl)CC1)CC(C)C` (stereo not drawn) [LYN-1604 (dihydrochloride)] (2.5 µM), 0.

Regarding `CCc1cc(O)c(F)cc1-c1ccc2c(-c3nc4c([nH]3)CN(C3CCN(C)CC3)CC4)n[nH]c2c1` [JAK-IN-5 (hydrochloride)] (2 µM), the “number of time points” value came to 2. As to `Cc1ccc(Nc2cc(-c3cccc(N4C(=O)c5ccccc5C4=O)c3)ncn2)cc1NS(C)(=O)=O` (10 µM), the “number of time points” value was 1. The figure for `C=C1C(=O)O[C@@H]2C[C@@]3(C)CCC[C@H](C)C3=C[C@H]12` [Alantolactone] (10 µM) is 0. The figure for `C=C(C)C(=O)Nc1cccc(-c2ncnc3[nH]cc(C(=O)OCC)c23)c1` (10 µM) is 0; for `CNc1nc(Nc2cnn(C3CCN(C4COC4)CC3F)c2Cl)ncc1C(F)(F)F` (stereo not drawn) (10 µM) it is 0; for `Cc1cc(Nc2cc(Cl)nc(Oc3ccc([N+](=O)[O-])cc3)n2)n[nH]1` [Autophinib] (2.5 µM) it is 0. The figure for `CC(C)=CC[C@H](O)C1=CC(=O)c2c(O)ccc(O)c2C1=O` [(-)-Alkannin] (2.5 µM) is 0. `CNCc1ccccc1-c1csc([C@@H](C)Nc2nc(C)nc3cc(OC)c(OC)cc23)c1` (2.5 µM): the “number of time points” value amounted to 0.

As to `COc1ncc(-c2nc(N3CCOCC3)nc3c(CN4CCC(C(C)(C)O)CC4)cc(F)cc23)cc1NS(C)(=O)=O` [Linperlisib] (10 µM), the “number of time points” value came to 0. `O=C(Nc1ccc(F)cc1F)[C@H](NC(=S)Nc1cc(C(F)(F)F)cc(C(F)(F)F)c1)c1ccccc1` (2.5 µM): the “number of time points” value amounted to 0.

Turning to `O=C1NC(=O)C(=Cc2ccc(-c3ccc(F)cc3)o2)S1` (stereo in doubt) (10 µM), the “number of time points” value is 0. The figure for `CCOc1cc(C(=O)N2CCC(N3CCN(C)CC3)CC2)ccc1Nc1ncc2c(n1)N(C1CCCC1)c1ccccc1C(=O)N2C` (10 µM) is 0. Under `OC(COc1ccc(C(F)(F)F)cc1)CN(Cc1ccccc1)Cc1ccccc1` (stereo not drawn) (2.5 µM) stands 0; under `C[C@@H]1C(=O)O[C@H](C)[C@H]1C[C@@H](O)[C@](C)(O)[C@H]1CC[C@@]2(O)C3=CC(=O)[C@@H]4C[C@@H](O)[C@@H](O)C[C@]4(C)[C@H]3CC[C@]12C` [Cyasterone] (10 µM), 0; under `Cc1c(CN2CCN(C(=O)[C@H](C)O)CC2)sc2c(N3CCOCC3)nc(-c3cnc(N)nc3)nc12` [Apitolisib] (10 µM), 0. `CC(C)(C)NC(=O)c1cncn1C1CCN(c2ccc(-c3nnc(C(F)(F)F)o3)cn2)CC1` (10 µM): the “number of time points” value amounted to 0. With `NCc1ccc(Nc2ncc(F)c(Nc3ccccc3)n2)cc1` (10 µM), the “number of time points” value is 0.

For `COC1(c2sc3c(N4CCOCC4)nc(-c4cnc(N)nc4)nc3c2C)COC1` (2.5 µM), the “number of time points” value was 0. The figure for `COc1cc2c[n+](C)c3c4cc5c(cc4ccc3c2cc1OC)OCO5` [Nitidine (chloride)] (2 µM) is 0; for `N#Cc1ccc2ncnc(NC3CCC(N4CCOCC4)CC3)c2c1` (stereo not drawn) (10 µM) it is 0.
